Assay results as given in paper PMC9436816.
These are yes or no findings as the source states them, for the method shown. Binding seen in cells or lysates may run through a third protein. A result given as binding can be weak or reduced; the word gives no strength. Sequences can lack the tags named with a protein.

Molecular target: T1, Flag-tagged OGT^WT (ncOGT) (UniProt O15294)
T1 sequence: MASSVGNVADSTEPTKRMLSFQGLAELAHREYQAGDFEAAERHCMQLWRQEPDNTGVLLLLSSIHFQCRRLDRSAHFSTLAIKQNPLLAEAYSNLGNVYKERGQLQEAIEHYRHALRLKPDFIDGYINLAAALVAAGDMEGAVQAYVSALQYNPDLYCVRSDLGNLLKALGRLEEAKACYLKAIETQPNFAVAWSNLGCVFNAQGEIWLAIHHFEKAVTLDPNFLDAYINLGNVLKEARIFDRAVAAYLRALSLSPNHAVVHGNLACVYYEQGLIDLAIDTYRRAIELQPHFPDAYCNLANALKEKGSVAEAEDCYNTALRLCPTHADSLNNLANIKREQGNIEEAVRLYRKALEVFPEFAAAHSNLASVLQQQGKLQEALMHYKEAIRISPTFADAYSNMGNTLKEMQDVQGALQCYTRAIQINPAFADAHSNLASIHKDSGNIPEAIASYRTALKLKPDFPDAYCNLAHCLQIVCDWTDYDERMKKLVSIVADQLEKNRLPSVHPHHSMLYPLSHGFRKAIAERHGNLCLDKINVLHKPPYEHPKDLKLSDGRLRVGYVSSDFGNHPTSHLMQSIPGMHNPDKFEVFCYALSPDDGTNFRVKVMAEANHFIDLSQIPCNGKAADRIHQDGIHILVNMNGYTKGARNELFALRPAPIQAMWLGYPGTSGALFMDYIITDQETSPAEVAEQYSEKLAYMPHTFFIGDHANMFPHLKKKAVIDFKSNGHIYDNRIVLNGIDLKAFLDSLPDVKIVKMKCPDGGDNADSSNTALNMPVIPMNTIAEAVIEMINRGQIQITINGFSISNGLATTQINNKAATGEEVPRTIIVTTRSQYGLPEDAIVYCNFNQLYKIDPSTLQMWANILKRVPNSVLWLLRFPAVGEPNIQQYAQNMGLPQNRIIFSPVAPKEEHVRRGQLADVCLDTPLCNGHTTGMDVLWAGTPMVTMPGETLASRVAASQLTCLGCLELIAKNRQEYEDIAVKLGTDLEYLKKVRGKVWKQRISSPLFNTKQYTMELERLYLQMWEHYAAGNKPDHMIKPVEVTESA
Assay: co-IP; A549 cells transfected with Flag-tagged OGT (WT or mutants), with or without EGF (100 ng/ml, 1 h); OGT-associated proteins immunoprecipitated, WB for endogenous partners

binding | Substance
binds | STAT5, endogenous (human (endogenous in A549))
binds | PI3K subunit p85, endogenous (human (endogenous in A549))
